Results are given in words; binding and its absence hold for the method and conditions named. Binding seen in cells or lysates may run through a third protein. Some results given as binding are weak or reduced against the parent protein; the word gives no strength. For some assays here: Tags and fused reporters may be left off the sequences shown. Blank lines part the entries; values can stand above or below the binder they belong to.
Columns and labels:
Settings in all cases: remark: other sources report otherwise
[1] = biological target: mCherry-NME1 (human), P15531; assay: FRET or BRET; FRET-FLIM (TCSPC) in live transfected HeLa cells at 37 °C; donor EGFP fusion, acceptor mCherry fusion; fraction of donors that experience FRET (DF) from a double-exponential fit; whole cells, and nucleus and cytoplasm apart; cells not irradiated or irradiated with 15 Gy gamma rays (Co-60)
[2] = biological target: T1, mCherry-NME2 (human), P22392; assay: as above
T1 chain: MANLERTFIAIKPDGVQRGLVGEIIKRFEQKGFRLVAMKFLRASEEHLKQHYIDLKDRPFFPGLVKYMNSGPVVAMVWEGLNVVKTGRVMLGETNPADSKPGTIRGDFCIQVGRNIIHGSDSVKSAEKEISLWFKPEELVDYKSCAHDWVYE

[3] = biological target: NME1-FLAG (human), P15531; assay: co-IP; anti-FLAG M2 agarose on nuclear and cytosolic fractions of co-transfected HeLa cells after induction of DNA damage (30 Gy); 100 µg total protein, overnight at 4 °C; beads equilibrated in TENN buffer (50 mM Tris pH 7.4, 150 mM NaCl, 5 mM EDTA, 0.5% NP-40); blot with anti-NME2

binding [1]: binds
binding [2]: binds
B1: EGFP-NME2, P22392 1-152 (protein)
chain: T1 chain

B2: NME2, P22392 1-152 (protein)
chain: T1 chain
binding [3]: binds

binding [1]: binds
binding [2]: binds
B3: NME2-EGFP, P22392 1-152 (protein)
chain: T1 chain

Reference: publication PMC7177722
